# In patent publication US20240209016A1, “FLUORESCENT NUCLEOSIDE PHOSPHATES” (STEALTH LABELS BIOTECH AB, priority 2021, published 2024):
# Some entries share one result that the patent states for a list of compounds.
# Columns and labels:
# [1] = Photophysical characterisation (absorption and emission spectra in DPBS); assay type: physicochemical; details: room temperature
# Procedure: Absorption spectra were recorded on a Cary 4000 spectrometer (Agilent Technologies). The emission spectra were measured on a SPEX Fluorolog 3 spectrofluorimeter (Jobin Yvon Horiba). Three consecutive emission spectra recorded at a scan rate of 600 nm min−1 were collected and averaged. The spectra of compounds 7 and 17 in DPBS were recorded from 360 nm to 695 nm with excitation at 355 nm. To avoid bleaching, the monochromator slits on the excitation side were set to 0.8 nm, and on the emission side to 2.5 nm.
# The spectra of molar absorptivities (ε in M^−1cm^−1) were calculated using Equation 1, with A being the measured absorption, A260 and ε260 the absorption or molar absorptivity, respectively, at 260 nm.
# The fluorescence quantum yields were determined relative to the quantum yield of quinine sulphate in 0.5 M H2SO4 (ϕF=0.546^42, referred to as reference), and calculated using Equation 2, in which subscripts s and r refer to sample and reference, respectively. I is the integrated fluorescence intensity, A the measured absorption of the fluorophore at the excitation wavelength and n is the refractive index of the solvent (H2O or H2SO4, respectively; Eaton D. F.; Pure Appl. Chem. 60, 1107-1114 [1988 ]). […]
# Huh-7 cells = assay: alamarBlue cell viability (metabolic activity) assay; assay type: cell-based; details: 10 μM, 24 h exposure
# Procedure: The Huh-7 human liver cell line was used.
# After 24 h exposure with compounds 7 or 17, the conditioned medium was removed from the cells and used for the LDH leakage assay (see below). Freshly prepared alamarBlue cell viability reagent (Invitrogen, diluted 1:10 in CCM) was added, followed by incubation for 3 h at 37° C. and 5% CO2. The resulting resorufin fluorescence was read using an Optima Fluostar plate reader (BMG Labtech) Ex: 544 nm/Em: 590 nm. Dimethyl sulfoxide 5% and CCM alone (i.e. compounds 7 and 17 0 μM) were used as positive and negative controls for cell death, respectively.
Substance,absorption range above that of the common nucleobases [1],cell death (alamarBlue) (Huh-7 cells)
"((2R,3S,4R,5R)-5-(8-cyano-2,3,5,6-tetraazaaceanthrylen-2(6H)-yl)-3,4-dihydroxytetrahydrofuran-2-yl)methyl hydrogen triphosphate [2CNqATP]",350-400 nm,
"((2R,3S,4R,5R)-5-(2,3,5,6-tetraazacyclopenta[de]tetracen-2(6H)-yl)-3,4-dihydroxytetrahydrofuran-2-yl)methyl hydrogen triphosphate [pATP]",350-400 nm,≤ 20%
